From article PMC5411486
Results are given in words; binding and its absence hold for the method and conditions named. In cells and extracts the contact can be indirect. Some entries that bind do so weakly or less than the wild type.

Biological target: TPNI-CUTie (UniProt P19429)
Test: co-IP; RIPA lysates of ARVM or NRVM infected with adenovirus carrying the targeted CUTie chimera; 2-4 h at 4 °C with agarose beads coated with anti-GFP (GFP-Trap_A); five washes with ice-cold RIPA buffer; western blot of bound proteins

Troponin T-C (from UniProt P50753 1-299)
binding: binds
